Measured values: article PMC1924602
These are yes or no findings as the source states them, for the method shown. Binding seen in cells or lysates may run through a third protein. Some results given as binding are weak or reduced against the parent protein; the word gives no strength.

Protein sequences, listed by entry. Tags and fused reporters are not part of them.
UniProt P35222: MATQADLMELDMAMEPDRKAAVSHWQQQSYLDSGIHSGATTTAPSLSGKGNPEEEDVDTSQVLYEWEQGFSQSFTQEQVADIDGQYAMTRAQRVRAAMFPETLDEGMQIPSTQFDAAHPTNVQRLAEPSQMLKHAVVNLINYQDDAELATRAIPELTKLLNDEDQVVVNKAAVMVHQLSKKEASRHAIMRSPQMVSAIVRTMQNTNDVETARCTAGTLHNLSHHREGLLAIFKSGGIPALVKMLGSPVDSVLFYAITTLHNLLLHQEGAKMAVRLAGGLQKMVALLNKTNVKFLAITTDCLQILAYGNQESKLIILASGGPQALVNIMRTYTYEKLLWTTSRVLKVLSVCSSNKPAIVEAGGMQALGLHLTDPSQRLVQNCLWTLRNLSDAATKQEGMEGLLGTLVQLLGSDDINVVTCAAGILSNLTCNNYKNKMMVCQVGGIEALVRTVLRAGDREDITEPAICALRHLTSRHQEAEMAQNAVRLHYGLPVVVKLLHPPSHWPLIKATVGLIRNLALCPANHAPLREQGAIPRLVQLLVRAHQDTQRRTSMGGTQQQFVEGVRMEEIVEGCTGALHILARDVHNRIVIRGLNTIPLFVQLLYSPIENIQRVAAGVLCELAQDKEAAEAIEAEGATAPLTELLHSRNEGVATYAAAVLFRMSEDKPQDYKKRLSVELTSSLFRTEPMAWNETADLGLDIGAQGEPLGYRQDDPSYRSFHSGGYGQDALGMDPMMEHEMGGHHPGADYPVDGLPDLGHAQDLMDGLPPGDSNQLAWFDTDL

How the values were obtained:
[1] = biological target: T1, γ-catenin (human (endogenous in kidney tissue)) (UniProt P14923); assay: co-IP; β- or γ-catenin-specific antibodies coupled to Protein-A agarose, incubated 1 hour at 4°C with pre-cleared normal human kidney tissue lysate (0.6% CHAPS in PBS with protease inhibitors); cadherin-9 detected by Western blot
T1 sequence: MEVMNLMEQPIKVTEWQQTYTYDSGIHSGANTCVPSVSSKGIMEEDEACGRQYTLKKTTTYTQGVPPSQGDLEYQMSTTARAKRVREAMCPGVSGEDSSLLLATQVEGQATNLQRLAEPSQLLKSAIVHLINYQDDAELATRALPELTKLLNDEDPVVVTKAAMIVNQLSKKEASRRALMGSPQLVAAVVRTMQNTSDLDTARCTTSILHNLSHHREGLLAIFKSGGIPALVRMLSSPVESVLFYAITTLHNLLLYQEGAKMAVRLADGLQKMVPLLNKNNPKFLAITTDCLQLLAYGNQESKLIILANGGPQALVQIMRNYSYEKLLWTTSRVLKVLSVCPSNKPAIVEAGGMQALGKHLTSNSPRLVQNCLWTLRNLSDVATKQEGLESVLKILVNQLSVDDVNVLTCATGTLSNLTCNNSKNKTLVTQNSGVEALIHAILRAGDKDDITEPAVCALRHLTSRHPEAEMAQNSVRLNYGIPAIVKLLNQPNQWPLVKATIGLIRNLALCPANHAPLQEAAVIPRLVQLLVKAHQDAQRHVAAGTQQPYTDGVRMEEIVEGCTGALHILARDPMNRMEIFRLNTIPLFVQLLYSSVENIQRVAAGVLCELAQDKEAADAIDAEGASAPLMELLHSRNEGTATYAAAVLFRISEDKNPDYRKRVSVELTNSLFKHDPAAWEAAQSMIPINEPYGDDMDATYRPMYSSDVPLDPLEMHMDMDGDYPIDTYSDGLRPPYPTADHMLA

[2] = biological target: β-catenin (human (endogenous in kidney tissue)) (UniProt P35222); assay: as above

binding [1]: binds
binding [2]: binds
B1: cadherin-9 (protein, UniProt Q9ULB4 54-789)
chain: GWMWNQFFLLEEYTGTDTQYVGKLHTDQDKGDGNLKYILTGDGAGSLFVIDENTGDIHAAKKLDREEKSLYILRAKAIDRKTGRQVEPESEFIIKIHDINDNEPKFTKDLYTASVPEMSGVGTSVIQVTATDADDANYGNSAKVVYSILQGQPYFSVDPESGIIKTALPDMSRENREQYQVVIQAKDMGGQMGGLSGTTTVNITLTDVNNNPPRFPQSTYQFNSPESVPLGTHLGRIKANDPDVGENAEMEYSIAEGDGADMFDVITDKDTQEGIITVKQNLDFENQMLYTLRVDASNTHPDPRFLHLGPFKDTAVVKISVEDIDEPPVFTKVSYLIEVDEDVKEGSIIGQVTAYDPDARNNLIKYSVDRHTDMDRIFGIHSENGSIFTLKALDRESSPWHNITVTATEINNPKQSSHIPVFIRILDINDHAPEFAMYYETFVCENAKPGQLIQTVSVMDKDDPPRGHKFFFEPVPEFTLNPNFTIVDNKDNTAGIMTRKDGYSRNKMSTYLLPILIFDNDYPIQSSTGTLTIRVCACDNQGNMQSCTAEALILSAGLSTGALVAILLCVLILLILVVLFAALKRQRKKEPLIISKDDVRDNIVTYNDEGGGEEDTQAFDIGTLRNPEAREDSKLRRDVMPETIFQIRRTVPLWENIDVQDFIHRRLKENDADPSAPPYDSLATYAYEGNDSIADSLSSLESLTADCNQDYDYLSDWGPRFKKLADMYGGDDSDRD
